Test results reported in article PMC6618013.
These are yes or no findings as the source states them, for the method shown. Binding seen in cells or lysates may run through a third protein. Some entries that bind do so weakly or less than the wild type.

Amino acid sequences for entries named in this document (tags omitted).
UniProt Q6Y1S1: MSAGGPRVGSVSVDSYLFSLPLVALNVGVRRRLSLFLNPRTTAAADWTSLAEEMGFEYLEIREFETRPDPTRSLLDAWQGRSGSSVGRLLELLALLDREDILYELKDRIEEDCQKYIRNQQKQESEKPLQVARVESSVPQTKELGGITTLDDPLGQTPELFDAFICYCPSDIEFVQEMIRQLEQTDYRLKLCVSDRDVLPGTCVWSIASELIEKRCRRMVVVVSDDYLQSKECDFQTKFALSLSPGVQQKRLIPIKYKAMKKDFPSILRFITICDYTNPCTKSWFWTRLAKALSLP

Biological target: T1, toll‐like receptor 4 (TLR4) (rat (endogenous in rat peritoneal macrophages)) (UniProt Q9QX05)
T1 sequence: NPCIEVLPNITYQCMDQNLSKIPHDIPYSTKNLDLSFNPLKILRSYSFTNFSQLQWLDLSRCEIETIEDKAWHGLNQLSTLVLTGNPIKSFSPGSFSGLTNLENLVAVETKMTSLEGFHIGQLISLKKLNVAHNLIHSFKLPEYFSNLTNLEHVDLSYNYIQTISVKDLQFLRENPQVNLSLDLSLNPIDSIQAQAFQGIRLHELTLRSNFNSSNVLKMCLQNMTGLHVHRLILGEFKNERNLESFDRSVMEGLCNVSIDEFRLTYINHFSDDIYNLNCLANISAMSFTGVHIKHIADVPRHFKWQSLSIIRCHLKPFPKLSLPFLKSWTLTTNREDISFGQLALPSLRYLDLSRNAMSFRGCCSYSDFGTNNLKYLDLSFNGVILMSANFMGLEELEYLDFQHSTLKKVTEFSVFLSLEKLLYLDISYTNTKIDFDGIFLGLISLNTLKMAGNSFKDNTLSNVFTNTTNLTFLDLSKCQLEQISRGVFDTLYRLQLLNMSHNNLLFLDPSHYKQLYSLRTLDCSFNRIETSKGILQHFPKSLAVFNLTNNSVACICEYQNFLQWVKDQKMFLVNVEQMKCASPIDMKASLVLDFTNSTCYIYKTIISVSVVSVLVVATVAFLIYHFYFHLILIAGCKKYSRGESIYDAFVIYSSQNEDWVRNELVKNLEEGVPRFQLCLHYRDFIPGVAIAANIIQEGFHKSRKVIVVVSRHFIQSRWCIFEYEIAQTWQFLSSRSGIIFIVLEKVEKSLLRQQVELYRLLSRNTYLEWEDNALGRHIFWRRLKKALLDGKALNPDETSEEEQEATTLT
Assay: co-IP; macrophages treated with LPS (100 ng/ml) and 3 µg/ml gCTRP9, MD2‐neutralizing antibody (100 ng/ml) or vehicle for 15 min; cell extracts precipitated with anti‐MD2 (blot for TLR4) or anti‐TLR4 (blot for MyD88), protein A magnetic beads, 4°C overnight

myeloid differentiation factor 88 (MyD88) (from UniProt Q6Y1S1 1-296)
binding: binds
